We go through one substance from patent US20020045591A1, “Methods and therapeutic compositions for treating cancer” (priority 1998, published 2002).

By UniProt entry, the sequences of proteins in these tests, tags left out. Where a name states a change or a piece, a line headed by the entry shows the natural chain unless it says otherwise. Residues count along the entry.
UniProt Q02248, residues 2-781: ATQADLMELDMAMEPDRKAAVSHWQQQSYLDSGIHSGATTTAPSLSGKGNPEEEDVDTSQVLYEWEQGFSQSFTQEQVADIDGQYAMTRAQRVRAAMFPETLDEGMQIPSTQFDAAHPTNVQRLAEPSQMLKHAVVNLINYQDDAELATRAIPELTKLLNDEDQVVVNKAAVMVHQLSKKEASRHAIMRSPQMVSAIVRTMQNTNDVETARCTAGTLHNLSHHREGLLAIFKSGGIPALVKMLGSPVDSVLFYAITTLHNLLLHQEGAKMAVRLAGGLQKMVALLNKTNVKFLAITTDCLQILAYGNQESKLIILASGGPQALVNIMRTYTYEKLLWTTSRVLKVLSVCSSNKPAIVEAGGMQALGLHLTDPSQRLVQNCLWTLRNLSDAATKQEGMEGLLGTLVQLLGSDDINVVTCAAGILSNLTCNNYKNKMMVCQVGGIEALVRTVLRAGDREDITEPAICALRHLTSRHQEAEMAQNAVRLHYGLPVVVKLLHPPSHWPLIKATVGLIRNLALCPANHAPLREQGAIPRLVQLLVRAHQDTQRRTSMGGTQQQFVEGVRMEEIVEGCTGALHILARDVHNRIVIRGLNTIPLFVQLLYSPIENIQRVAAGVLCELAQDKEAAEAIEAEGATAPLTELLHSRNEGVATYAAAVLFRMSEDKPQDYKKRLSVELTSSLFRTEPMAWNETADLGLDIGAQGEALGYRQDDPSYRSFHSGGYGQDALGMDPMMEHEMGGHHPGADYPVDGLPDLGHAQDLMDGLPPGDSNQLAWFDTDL
UniProt B2KI42: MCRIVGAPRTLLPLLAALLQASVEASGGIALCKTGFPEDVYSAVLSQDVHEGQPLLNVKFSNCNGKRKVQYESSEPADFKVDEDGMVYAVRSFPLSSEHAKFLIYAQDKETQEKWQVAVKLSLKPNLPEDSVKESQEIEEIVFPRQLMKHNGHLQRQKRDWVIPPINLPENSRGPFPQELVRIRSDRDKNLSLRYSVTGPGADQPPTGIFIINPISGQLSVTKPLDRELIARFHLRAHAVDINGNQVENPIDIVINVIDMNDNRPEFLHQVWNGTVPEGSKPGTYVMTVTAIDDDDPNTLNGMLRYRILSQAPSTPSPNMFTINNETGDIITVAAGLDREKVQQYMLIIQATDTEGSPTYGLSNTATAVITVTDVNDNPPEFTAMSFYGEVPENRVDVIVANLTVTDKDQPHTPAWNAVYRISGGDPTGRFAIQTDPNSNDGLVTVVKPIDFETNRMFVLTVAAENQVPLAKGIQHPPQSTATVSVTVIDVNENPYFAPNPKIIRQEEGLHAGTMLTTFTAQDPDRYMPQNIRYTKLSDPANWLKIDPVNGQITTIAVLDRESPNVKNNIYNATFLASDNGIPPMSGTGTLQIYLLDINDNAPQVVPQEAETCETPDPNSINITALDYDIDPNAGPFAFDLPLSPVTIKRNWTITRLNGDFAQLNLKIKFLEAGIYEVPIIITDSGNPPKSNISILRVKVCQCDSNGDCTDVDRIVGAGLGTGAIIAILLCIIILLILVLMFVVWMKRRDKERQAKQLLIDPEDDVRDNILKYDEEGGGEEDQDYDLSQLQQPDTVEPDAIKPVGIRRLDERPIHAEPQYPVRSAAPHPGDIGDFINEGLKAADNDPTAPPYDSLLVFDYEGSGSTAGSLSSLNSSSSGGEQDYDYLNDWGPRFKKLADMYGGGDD

These are yes or no findings as the source states them, for the method shown. Binding seen in cells or lysates may run through a third protein. Some binding calls cover weakened binding; strength is not graded here.

Assay [1] has as its target Mouse β-catenin (transfected cDNA) (mouse) (UniProt Q02248). As to the kind of experiment: competition co-immunoprecipitation: anti HA IP of HA-LEF-1, immunoblot anti β-catenin, CHO cells with increasing N-cadherin tail cDNA; competitor HA-LEF-1. On the technique in general: Immunoblotting shows a protein as a band on a membrane.
Assay [2] has the same target. As to the kind of experiment: competition co-immunoprecipitation: anti HA IP of HA-LEF-1, immunoblot anti β-catenin, CHO cells; competitor HA-LEF-1.

Take “N-cadherin cytoplasmic tail tagged with a Flag epitope (from UniProt B2KI42 746-906)”: the binding result in assay [1] and in assay [2] was “binds” each time.
